The supplement of paper PMC10849652
This is one part of the list. Residues, ends and D or L forms follow the SMILES beside them. *: point of attachment. Cbz = O=C(OCc1ccccc1)*

Chains of the proteins cited; added tags and fusions are not shown. Lines headed by an entry give the natural chain unless they say otherwise; changes in a name come on top.
UniProt O75368: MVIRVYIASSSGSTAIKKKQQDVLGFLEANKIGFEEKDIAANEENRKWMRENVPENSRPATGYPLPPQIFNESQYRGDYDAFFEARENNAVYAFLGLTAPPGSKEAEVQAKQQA
UniProt Q9NVA2: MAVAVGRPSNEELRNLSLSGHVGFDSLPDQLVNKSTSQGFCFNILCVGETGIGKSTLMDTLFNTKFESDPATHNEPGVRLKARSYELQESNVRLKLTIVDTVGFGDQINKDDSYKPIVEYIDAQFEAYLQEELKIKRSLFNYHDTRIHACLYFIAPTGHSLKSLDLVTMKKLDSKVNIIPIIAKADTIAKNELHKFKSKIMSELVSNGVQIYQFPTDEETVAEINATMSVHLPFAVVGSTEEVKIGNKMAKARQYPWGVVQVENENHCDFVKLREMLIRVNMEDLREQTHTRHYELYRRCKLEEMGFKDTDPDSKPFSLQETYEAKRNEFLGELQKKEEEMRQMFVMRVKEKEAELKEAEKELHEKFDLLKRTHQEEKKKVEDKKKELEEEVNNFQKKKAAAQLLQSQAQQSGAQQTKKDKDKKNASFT
UniProt Q99574: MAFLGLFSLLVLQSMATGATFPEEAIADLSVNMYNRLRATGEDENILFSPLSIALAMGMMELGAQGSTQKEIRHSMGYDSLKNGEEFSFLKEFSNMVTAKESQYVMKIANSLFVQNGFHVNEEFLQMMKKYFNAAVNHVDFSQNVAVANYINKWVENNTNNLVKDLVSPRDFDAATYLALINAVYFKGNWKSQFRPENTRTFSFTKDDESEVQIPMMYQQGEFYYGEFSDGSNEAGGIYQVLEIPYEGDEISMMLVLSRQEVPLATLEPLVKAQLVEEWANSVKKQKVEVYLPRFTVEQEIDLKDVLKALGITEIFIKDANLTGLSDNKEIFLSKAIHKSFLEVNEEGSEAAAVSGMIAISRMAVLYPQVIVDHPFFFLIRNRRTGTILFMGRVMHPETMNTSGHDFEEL
UniProt O43765: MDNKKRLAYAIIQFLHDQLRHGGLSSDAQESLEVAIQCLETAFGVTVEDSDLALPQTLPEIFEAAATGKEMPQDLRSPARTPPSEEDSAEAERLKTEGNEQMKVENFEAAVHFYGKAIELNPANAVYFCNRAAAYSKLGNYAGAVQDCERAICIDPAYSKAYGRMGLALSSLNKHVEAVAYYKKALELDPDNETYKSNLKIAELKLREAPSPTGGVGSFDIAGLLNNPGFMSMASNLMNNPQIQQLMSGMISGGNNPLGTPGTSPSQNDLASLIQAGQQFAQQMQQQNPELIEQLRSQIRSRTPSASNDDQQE
UniProt Q99720, whole entry, looked up: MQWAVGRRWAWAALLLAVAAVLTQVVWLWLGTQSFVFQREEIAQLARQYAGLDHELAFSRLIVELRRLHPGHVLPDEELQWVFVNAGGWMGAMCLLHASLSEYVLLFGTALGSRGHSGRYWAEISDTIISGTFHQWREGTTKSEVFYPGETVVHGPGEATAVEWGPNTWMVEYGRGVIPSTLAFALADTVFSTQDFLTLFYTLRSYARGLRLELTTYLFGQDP
UniProt P49903: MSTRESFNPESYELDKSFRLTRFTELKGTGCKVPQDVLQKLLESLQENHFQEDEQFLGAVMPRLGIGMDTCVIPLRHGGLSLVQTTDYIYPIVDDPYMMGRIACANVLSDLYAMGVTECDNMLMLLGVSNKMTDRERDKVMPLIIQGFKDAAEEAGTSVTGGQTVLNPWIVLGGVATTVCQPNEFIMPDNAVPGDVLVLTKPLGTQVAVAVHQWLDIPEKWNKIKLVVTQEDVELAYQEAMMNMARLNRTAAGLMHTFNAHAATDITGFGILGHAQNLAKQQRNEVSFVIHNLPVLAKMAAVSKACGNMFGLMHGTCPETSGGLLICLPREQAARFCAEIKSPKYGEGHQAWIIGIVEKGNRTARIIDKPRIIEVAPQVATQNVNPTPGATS
UniProt Q96EQ0: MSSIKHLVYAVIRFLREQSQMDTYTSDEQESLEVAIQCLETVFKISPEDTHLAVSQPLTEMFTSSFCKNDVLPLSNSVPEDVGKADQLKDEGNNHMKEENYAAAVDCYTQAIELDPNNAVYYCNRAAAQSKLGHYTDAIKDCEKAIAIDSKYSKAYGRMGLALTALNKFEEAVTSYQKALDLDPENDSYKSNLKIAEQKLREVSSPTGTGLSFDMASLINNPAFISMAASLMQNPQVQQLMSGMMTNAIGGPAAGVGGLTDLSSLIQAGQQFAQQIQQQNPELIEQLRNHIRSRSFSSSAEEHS
UniProt Q96EB6: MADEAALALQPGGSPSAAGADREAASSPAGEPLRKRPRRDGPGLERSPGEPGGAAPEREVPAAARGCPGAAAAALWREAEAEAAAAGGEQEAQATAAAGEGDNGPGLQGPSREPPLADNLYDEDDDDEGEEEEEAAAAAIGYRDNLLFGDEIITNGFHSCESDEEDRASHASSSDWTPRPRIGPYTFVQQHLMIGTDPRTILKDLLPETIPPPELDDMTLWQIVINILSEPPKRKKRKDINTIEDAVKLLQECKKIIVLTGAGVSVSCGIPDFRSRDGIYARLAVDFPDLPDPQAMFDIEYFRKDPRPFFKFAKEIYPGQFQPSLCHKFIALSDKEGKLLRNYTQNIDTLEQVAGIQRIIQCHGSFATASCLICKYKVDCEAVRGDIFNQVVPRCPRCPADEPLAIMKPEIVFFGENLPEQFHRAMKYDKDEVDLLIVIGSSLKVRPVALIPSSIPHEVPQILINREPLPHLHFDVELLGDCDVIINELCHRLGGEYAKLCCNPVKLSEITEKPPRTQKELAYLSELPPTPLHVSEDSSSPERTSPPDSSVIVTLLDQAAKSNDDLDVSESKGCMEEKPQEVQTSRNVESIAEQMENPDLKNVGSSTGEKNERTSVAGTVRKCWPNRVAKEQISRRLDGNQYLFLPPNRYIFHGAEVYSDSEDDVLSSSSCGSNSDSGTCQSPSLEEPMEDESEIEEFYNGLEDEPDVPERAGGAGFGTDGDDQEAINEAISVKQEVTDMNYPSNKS
UniProt Q8NC51: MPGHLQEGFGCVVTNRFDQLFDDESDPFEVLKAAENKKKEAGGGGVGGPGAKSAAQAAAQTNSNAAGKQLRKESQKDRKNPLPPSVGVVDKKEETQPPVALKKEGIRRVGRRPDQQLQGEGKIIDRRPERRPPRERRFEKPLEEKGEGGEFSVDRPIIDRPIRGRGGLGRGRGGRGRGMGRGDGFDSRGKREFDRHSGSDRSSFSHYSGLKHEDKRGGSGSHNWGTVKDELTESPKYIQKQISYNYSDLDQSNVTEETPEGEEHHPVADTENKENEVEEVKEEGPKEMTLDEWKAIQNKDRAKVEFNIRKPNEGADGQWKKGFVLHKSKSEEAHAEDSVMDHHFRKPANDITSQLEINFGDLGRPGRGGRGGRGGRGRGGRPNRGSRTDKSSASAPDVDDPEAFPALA
UniProt Q5FBB7: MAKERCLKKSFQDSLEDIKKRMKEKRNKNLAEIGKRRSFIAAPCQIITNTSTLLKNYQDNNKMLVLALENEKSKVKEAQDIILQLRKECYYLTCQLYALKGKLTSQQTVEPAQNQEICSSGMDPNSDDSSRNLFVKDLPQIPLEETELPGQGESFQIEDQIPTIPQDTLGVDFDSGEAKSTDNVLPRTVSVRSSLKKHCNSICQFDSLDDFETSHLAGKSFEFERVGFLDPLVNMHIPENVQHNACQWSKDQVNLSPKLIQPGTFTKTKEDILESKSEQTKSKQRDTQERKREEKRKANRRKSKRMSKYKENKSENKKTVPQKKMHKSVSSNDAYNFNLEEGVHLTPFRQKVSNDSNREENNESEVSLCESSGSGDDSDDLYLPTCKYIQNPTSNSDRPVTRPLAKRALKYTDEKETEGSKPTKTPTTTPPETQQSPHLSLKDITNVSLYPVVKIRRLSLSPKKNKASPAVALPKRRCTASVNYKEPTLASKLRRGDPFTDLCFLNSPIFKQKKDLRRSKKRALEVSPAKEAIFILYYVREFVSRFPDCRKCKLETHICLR
UniProt Q99442: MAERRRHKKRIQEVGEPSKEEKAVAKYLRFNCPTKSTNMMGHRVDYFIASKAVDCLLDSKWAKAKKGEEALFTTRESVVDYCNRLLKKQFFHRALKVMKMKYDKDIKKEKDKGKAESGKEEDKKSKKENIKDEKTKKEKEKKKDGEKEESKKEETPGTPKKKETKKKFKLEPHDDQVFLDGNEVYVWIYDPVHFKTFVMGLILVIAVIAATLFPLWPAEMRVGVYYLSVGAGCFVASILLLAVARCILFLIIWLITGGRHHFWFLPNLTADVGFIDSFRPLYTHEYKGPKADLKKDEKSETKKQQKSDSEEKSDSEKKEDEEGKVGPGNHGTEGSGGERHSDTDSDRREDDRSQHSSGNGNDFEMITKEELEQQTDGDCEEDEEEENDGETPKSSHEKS
UniProt P50454: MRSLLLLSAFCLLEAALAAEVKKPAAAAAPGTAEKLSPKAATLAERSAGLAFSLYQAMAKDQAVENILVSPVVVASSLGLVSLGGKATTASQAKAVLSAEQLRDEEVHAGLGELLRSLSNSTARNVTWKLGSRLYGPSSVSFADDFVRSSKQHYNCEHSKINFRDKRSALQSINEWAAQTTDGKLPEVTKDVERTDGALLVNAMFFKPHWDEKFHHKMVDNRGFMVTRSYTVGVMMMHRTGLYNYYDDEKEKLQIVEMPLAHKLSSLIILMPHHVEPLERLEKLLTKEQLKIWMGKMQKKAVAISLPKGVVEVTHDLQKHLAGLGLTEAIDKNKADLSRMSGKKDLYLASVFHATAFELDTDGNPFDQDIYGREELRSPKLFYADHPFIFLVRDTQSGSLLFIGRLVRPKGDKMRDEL
UniProt Q9HD40: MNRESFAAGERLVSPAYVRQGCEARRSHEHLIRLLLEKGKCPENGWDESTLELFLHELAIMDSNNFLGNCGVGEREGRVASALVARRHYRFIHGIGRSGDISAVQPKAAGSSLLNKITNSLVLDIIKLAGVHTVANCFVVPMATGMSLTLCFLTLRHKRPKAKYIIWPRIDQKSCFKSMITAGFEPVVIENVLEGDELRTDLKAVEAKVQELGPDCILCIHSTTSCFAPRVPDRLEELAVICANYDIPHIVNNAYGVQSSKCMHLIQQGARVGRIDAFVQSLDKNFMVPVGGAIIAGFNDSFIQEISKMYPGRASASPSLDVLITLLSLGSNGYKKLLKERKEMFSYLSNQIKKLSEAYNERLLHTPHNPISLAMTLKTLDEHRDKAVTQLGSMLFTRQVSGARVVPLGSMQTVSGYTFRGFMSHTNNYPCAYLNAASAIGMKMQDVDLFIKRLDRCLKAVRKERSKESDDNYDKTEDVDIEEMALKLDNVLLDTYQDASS
UniProt Q9H9S3, whole entry, looked up: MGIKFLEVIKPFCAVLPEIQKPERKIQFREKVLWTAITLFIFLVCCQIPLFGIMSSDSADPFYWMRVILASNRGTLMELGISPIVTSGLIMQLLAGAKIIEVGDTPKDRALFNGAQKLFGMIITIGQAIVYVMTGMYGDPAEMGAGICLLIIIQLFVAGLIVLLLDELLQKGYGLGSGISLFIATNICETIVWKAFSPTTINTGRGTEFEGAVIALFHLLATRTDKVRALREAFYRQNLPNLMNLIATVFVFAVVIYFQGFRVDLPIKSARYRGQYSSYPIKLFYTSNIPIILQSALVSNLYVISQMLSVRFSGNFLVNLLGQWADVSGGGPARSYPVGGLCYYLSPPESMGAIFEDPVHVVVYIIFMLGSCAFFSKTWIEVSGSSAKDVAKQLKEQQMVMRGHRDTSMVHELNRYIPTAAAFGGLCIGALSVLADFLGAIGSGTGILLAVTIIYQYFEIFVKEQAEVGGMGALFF
UniProt Q86VZ5: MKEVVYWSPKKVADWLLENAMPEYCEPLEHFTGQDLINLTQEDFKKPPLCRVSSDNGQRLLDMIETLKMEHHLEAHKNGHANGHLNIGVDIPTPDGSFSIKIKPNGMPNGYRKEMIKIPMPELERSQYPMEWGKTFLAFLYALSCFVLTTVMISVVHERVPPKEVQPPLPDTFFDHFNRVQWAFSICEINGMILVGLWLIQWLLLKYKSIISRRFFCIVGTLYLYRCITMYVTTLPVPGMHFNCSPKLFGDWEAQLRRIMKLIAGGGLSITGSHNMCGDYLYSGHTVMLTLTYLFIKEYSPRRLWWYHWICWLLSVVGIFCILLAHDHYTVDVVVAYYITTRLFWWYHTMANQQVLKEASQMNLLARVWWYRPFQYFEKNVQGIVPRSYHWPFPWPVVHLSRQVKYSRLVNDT
UniProt P61619, whole entry, looked up: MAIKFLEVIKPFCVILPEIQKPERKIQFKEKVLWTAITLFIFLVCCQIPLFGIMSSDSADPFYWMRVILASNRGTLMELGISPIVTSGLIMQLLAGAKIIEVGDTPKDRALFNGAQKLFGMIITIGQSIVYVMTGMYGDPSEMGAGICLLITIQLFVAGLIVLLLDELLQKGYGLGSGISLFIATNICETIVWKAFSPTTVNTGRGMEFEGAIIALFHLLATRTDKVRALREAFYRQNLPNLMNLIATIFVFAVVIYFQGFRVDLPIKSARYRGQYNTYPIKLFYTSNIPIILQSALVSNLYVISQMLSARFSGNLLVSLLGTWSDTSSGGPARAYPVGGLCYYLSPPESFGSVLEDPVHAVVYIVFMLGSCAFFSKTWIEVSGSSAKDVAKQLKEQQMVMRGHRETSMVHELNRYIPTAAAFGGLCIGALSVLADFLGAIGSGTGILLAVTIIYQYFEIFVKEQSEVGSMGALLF

What was measured:
Experiment in all cases: log2 fold change, soluble protein after heating vs DMSO (PISA); higher = thermal stabilisation; K562 cells, 10 uM, 30 min; active = over 0.2 and 3.5 SD of the protein, either way, in both replicates (recomputed)
IRAK-1-4 Inhibitor I = compound: C1COCCN1CCN2C3=CC=CC=C3N=C2NC(=O)C4=CC(=CC=C4)[N+](=O)[O-] [IRAK-1-4 Inhibitor I]
Summary of the method: (§1)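 Aliquots of K562 cells (2×10^6 cells/mL) treated with 10 μM compound for 30 min were heated for 3 min over 48°C-58°C. After pooling and extraction in PBS with 0.5% NP-40 at 4°C, soluble protein from a 21,000xg, 90 min spin was quantified by TMTpro 16plex LC-MS/MS with channel sums equalised. Thermal stability is expressed against control samples, from duplicates, as a log2 fold change.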

ibrutinib = compound: C=CC(=O)N1CCC[C@@H](n2nc(-c3ccc(Oc4ccccc4)cc3)c3c(N)ncnc32)C1 [ibrutinib]
Summary of the method: as §1

[1] = compound: CC(=O)c1cnc2ccc(-c3cc(Cl)c(O)c(Cl)c3)nc2c1N[C@H]1CC[C@H](CN(C)C)CC1
Summary of the method: as §1

ralimetinib = compound: CC(C)(C)Cn1c(N)nc2ccc(-c3[nH]c(C(C)(C)C)nc3-c3ccc(F)cc3)nc21 [ralimetinib]
Summary of the method: as §1

[2] = compound: CC(C)(O)CC(=O)NCCn1ccc2ncnc(Nc3ccc(Oc4cccc(C(F)(F)F)c4)c(Cl)c3)c21
Summary of the method: as §1

[3] = compound: CC(C)C1=C2N=C(C=C(N2N=C1)NCC3=CC=CC=C3)NCCCCCCN
Summary of the method: as §1

[4] = compound: CC(C)C[C@@H](C=O)NC(=O)[C@H](CC(C)C)NC(=O)[C@H](CC(C)C)NC(=O)OCc1ccccc1
Summary of the method: as §1

pinometostat = compound: CC(C)N(C[C@H]1O[C@@H](n2cnc3c(N)ncnc32)[C@H](O)[C@@H]1O)[C@H]1C[C@@H](CCc2nc3cc(C(C)(C)C)ccc3[nH]2)C1 [pinometostat]
Summary of the method: as §1

[5] = compound: CC1=C(C(CC(=O)N1)C2=CC=C(C=C2)C(F)(F)F)C(=O)NC3=C(C=C4C(=C3)C=NN4)F
Summary of the method: as §1

[6] = compound: CC1=C(C2=C(C=C1)C(=O)C3=CC=CC=C3N2CCCN)C
Summary of the method: as §1

Measured: log2 fold change

SH3BGRL (UniProt O75368)
inactive: IRAK-1-4 Inhibitor I 0.053 | ibrutinib -0.003 | [1] 0.027 | ralimetinib -0.026 | [2] -0.06 | [3] 0.049 | [4] -0.113 | pinometostat -0.055 | [5] -0.01 | [6] 0.023

SEPTIN4 isoform 4 (UniProt O43236)
inactive: IRAK-1-4 Inhibitor I -0.114 | ibrutinib -0.064 | [1] 0.045 | ralimetinib 0.114 | [2] -0.162 | [3] 0.058 | [4] -0.165 | pinometostat -0.185 | [5] 0.006 | [6] 0.117

SFXN1 (UniProt Q9H9B4)
inactive: IRAK-1-4 Inhibitor I 0.036 | ibrutinib 0.033 | [1] -0.003 | ralimetinib 0.021 | [2] -0.111 | [3] -0.12 | [4] -0.068 | pinometostat -0.099 | [5] -0.003 | [6] 0.056

SEPTIN11 isoform 2 (UniProt Q9NVA2)
inactive: IRAK-1-4 Inhibitor I 0.043 | ibrutinib 0.018 | [1] -0.008 | ralimetinib -0.046 | [2] 0.01 | [3] 0.088 | [4] 0.006 | pinometostat -0.044 | [5] 0.015 | [6] -0.005

SEMA4B (UniProt Q9NPR2)
inactive: IRAK-1-4 Inhibitor I -0.011 | ibrutinib 0.013 | [1] 0.085 | ralimetinib 0.169 | [2] -0.067 | [3] 0.074 | [4] 0.003 | pinometostat 0.068 | [5] -0.056 | [6] -0.106

SERPINI1 (UniProt Q99574)
inactive: IRAK-1-4 Inhibitor I 0.053 | ibrutinib 0.007 | [1] 0.014 | ralimetinib 0.029 | [2] 0.07 | [3] 0.064 | [4] 0.01 | pinometostat -0.044 | [5] 0 | [6] -0.037

SEPTIN9 (UniProt Q9UHD8)
inactive: IRAK-1-4 Inhibitor I 0.024 | ibrutinib -0.008 | [1] -0.045 | ralimetinib -0.046 | [2] -0.02 | [3] 0.022 | [4] -0.012 | pinometostat 0.011 | [5] 0.013 | [6] 0.044

SGTA (UniProt O43765)
inactive: IRAK-1-4 Inhibitor I 0.013 | ibrutinib -0.007 | [1] 0.023 | ralimetinib 0.005 | [2] 0.002 | [3] -0.015 | [4] 0.002 | pinometostat -0.038 | [5] 0.022 | [6] 0.025

SIGMAR1 (UniProt Q99720)
inactive: IRAK-1-4 Inhibitor I 0.019 | ibrutinib -0.004 | [1] -0.038 | ralimetinib -0.057 | [2] 0.024 | [3] 0.122 | [4] 0.022 | pinometostat -0.045 | [5] -0.021 | [6] -0.004

SEPHS1 (UniProt P49903)
inactive: IRAK-1-4 Inhibitor I 0.021 | ibrutinib 0.005 | [1] -0.032 | ralimetinib -0.009 | [2] -0.041 | [3] 0.038 | [4] -0.008 | pinometostat -0.028 | [5] 0.022 | [6] 0.026

SGTB (UniProt Q96EQ0)
inactive: IRAK-1-4 Inhibitor I 0.052 | ibrutinib 0.014 | [1] -0.017 | ralimetinib -0.051 | [2] 0.029 | [3] -0.002 | [4] -0.014 | pinometostat -0.015 | [5] -0.02 | [6] 0.013

SHKBP1 (UniProt Q8TBC3)
inactive: IRAK-1-4 Inhibitor I 0.004 | ibrutinib 0.068 | [1] -0.022 | ralimetinib -0.074 | [2] -0.034 | [3] 0.139 | [4] 0.206 | pinometostat 0 | [5] 0.019 | [6] 0.023

SF1 isoform 6 (UniProt Q15637)
inactive: IRAK-1-4 Inhibitor I -0.023 | ibrutinib 0.063 | [1] 0.032 | ralimetinib 0.031 | [2] 0.086 | [3] 0.001 | [4] 0.021 | pinometostat 0.043 | [5] 0.012 | [6] 0.067

SIRT1 (UniProt Q96EB6)
inactive: IRAK-1-4 Inhibitor I 0.029 | ibrutinib -0.018 | [1] -0.024 | ralimetinib 0.013 | [2] -0.008 | [3] -0.053 | [4] 0.029 | pinometostat -0.044 | [5] 0.015 | [6] -0.096

SERBP1 (UniProt Q8NC51)
inactive: IRAK-1-4 Inhibitor I -0.039 | ibrutinib 0.019 | [1] 0.038 | ralimetinib 0.224 | [2] 0.075 | [3] 0.085 | [4] 0.23 | pinometostat 0.122 | [5] 0.054 | [6] 0.233

SGO1 (UniProt Q5FBB7)
inactive: IRAK-1-4 Inhibitor I 0.019 | ibrutinib -0.036 | [1] 0.007 | ralimetinib -0.027 | [2] 0.011 | [3] -0.1 | [4] 0.072 | pinometostat -0.001 | [5] -0.028 | [6] -0.165

SEC62 (UniProt Q99442)
inactive: IRAK-1-4 Inhibitor I 0.046 | ibrutinib 0.081 | [1] 0.041 | ralimetinib -0.046 | [2] 0.048 | [3] 0.083 | [4] 0.021 | pinometostat -0.058 | [5] 0.107 | [6] 0.064

SERPINH1 (UniProt P50454)
inactive: IRAK-1-4 Inhibitor I 0.016 | ibrutinib -0.018 | [1] 0.013 | ralimetinib 0.037 | [2] -0.006 | [3] -0.002 | [4] -0.04 | pinometostat -0.011 | [5] -0.009 | [6] 0.02

SELENOS (UniProt Q9BQE4)
inactive: IRAK-1-4 Inhibitor I 0.044 | ibrutinib 0.059 | [1] -0.014 | ralimetinib -0.064 | [2] -0.083 | [3] 0.055 | [4] 0.036 | pinometostat -0.084 | [5] 0.01 | [6] -0.04

SHC1 isoform 6 (UniProt P29353)
inactive: IRAK-1-4 Inhibitor I 0.015 | ibrutinib 0.012 | [1] 0.005 | ralimetinib -0.044 | [2] 0.007 | [3] 0.042 | [4] 0.03 | pinometostat -0.013 | [5] -0.006 | [6] -0.035

SEPSECS (UniProt Q9HD40)
inactive: IRAK-1-4 Inhibitor I 0.06 | ibrutinib -0.028 | [1] -0.047 | ralimetinib -0.02 | [2] 0.067 | [3] 0.072 | [4] -0.025 | pinometostat -0.017 | [5] -0.042 | [6] -0.022

SIPA1 (UniProt Q96FS4)
inactive: IRAK-1-4 Inhibitor I -0.041 | ibrutinib -0.024 | [1] -0.097 | ralimetinib 0.042 | [2] -0.015 | [3] 0.083 | [4] 0.047 | pinometostat -0.007 | [5] 0.067 | [6] 0.031

Two entries drawn at random from those above:
SELENOS (UniProt Q9BQE4)
inactive: IRAK-1-4 Inhibitor I 0.044 | ibrutinib 0.059 | [1] -0.014 | ralimetinib -0.064 | [2] -0.083 | [3] 0.055 | [4] 0.036 | pinometostat -0.084 | [5] 0.01 | [6] -0.04

SEPSECS (UniProt Q9HD40)
inactive: IRAK-1-4 Inhibitor I 0.06 | ibrutinib -0.028 | [1] -0.047 | ralimetinib -0.02 | [2] 0.067 | [3] 0.072 | [4] -0.025 | pinometostat -0.017 | [5] -0.042 | [6] -0.022

Remaining list, next part:

SEC61A2 (UniProt Q9H9S3)
inactive: IRAK-1-4 Inhibitor I 0.051 | ibrutinib 0.01 | [1] 0.021 | ralimetinib -0.086 | [2] -0.063 | [3] 0.009 | [4] -0.125 | pinometostat -0.08 | [5] -0.007 | [6] 0.017

SERPINB6, A0A087X1N8
inactive: IRAK-1-4 Inhibitor I 0.05 | ibrutinib 0.044 | [1] 0.019 | ralimetinib 0.002 | [2] 0.017 | [3] 0.04 | [4] -0.028 | pinometostat -0.033 | [5] 0.027 | [6] -0.053

SGMS1 (UniProt Q86VZ5)
inactive: IRAK-1-4 Inhibitor I 0.017 | ibrutinib 0.026 | [1] 0.018 | ralimetinib 0 | [2] -0.004 | [3] -0.064 | [4] -0.03 | pinometostat -0.035 | [5] -0.016 | [6] -0.017

SEC61A1 (UniProt P61619)
inactive: IRAK-1-4 Inhibitor I 0.063 | ibrutinib 0.072 | [1] 0.031 | ralimetinib -0.077 | [2] 0.02 | [3] 0.047 | [4] -0.025 | pinometostat -0.017 | [5] 0.036 | [6] 0.024

SHMT2 (UniProt P34897)
inactive: IRAK-1-4 Inhibitor I 0.024 | ibrutinib 0.012 | [1] 0.006 | ralimetinib -0.051 | [2] 0.008 | [3] 0.026 | [4] -0.021 | pinometostat -0.037 | [5] -0.005 | [6] -0.002
